Experimental data reported in patent US9068971B2, “Methods for treating and/or limiting development of diabetes” (BioCrine AB, priority 2012, dated 2015).
At least one structure is not confirmed: it was looked up by name or label, or the drawing left a doubt.

Tested on: β cell CaV channels
Test: Perforated whole-cell patch-clamp of Ca2+ currents in RINm5F cells
Type: cell-based, rat
Procedure: Islets of Langerhans were isolated from adult male and female mice and dispersed into single β cells. RINm5F cells at about 70% confluency were trypsinized. The resultant suspension of cells was seeded into Petri dishes or 12-well plates. The cells were cultivated in RPMI 1640 medium supplemented with 10% fetal bovine serum, 2 mM L-glutamine, and 100 U/100 μg/ml penicillin/streptomycin (Invitrogen, Carlsbad, Calif.) and maintained at 37° C. in a humidified 5% CO2 incubator. They were grown overnight and then subjected to siRNA transfection. For patch-clamp analysis, cells underwent overnight treatment with ApoCIII, the PKA inhibitor H-89 (Calbiochem, La Jolla, Calif.), the PKC inhibitor calphostin C (Calbiochem), the Src kinase inhibitor PP2 (Calbiochem) and the CaV1 channel blocker nimodipine (Calbiochem) in RPMI medium at final concentrations of 20 μg/ml, 0.5 μM, 0.1 μM, 0.1 μM and 5 μM, respectively. […]
Mouse islet cells and RINm5F cells following different treatments were subjected to single channel and whole-cell patch-clamp measurements. […] Single channel and whole-cell currents were recorded with an Axopatch 200B amplifier (Molecular Devices, Foster City, Calif.) and an EPC-9 patch clamp amplifier (HEKA Elektronik, Lambrecht/Pfalz, Germany), respectively, at room temperature (about 22° C.). […]

## COCCOC(=O)C1=C(C)NC(C)=C(C(=O)OC(C)C)C1c1cccc([N+](=O)[O-])c1 (centres unmarked) [nimodipine]
ApoCIII 20 μg/ml overnight with inhibitor cotreatment or after siRNA pretransfection
  effect on ApoCIII-induced hyperactivation of β cell CaV channels (enhancement of whole-cell Ca2+ currents): completely abrogated
overnight, nimodipine 5 μM (control = Nim alone), H-89 0.5 μM, calphostin C 0.1 μM, PP2 0.1 μM
  whole-cell Ca2+ current density, ApoCIII plus inhibitor(s) compared with control cells: no significant difference
